Source: PMC8931250, “A SURF4-to-proteoglycan relay mechanism that mediates the sorting and secretion of a tagged variant of sonic hedgehog” (Proceedings of the National Academy of Sciences of the …, 2022)
Results are given in words; binding and its absence hold for the method and conditions named. In cells and extracts the contact can be indirect. Some entries that bind do so weakly or less than the wild type.

The chains behind the UniProt entries cited, without tags or fusion partners. Where a name states a change or a piece, a line headed by the entry shows the natural chain unless it says otherwise. A line that says so, or that is headed by a name, gives the form on record, which may keep a tag or linker. Residues count along the entry.
3xHA-tagged ShhN (ShhN^1-198-HA) (not stated (human or mouse cDNA cloned)) (Q62226, residues 25-198): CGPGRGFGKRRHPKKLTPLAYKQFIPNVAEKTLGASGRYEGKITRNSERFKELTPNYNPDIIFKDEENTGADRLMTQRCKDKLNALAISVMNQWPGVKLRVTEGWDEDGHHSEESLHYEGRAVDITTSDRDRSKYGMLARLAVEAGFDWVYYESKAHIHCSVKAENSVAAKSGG
HA-tagged CW motif-depleted ShhN (ShhN^Δ33-39-HA) (not stated (human or mouse cDNA cloned)) (Q62226, form named): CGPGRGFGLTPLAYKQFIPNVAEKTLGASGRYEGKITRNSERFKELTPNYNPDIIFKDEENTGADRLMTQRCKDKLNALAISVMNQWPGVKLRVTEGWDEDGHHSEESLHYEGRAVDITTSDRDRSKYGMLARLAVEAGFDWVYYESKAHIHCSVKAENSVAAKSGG
UniProt O15260: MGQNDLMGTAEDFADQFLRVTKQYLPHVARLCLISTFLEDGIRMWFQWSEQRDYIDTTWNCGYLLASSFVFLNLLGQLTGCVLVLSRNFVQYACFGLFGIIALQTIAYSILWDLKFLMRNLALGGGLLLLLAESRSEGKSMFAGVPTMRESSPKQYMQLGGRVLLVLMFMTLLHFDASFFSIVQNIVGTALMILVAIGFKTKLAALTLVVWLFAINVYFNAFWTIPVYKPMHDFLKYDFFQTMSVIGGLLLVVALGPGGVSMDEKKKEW
SURF4^ED-AA-Myc (O15260, form named): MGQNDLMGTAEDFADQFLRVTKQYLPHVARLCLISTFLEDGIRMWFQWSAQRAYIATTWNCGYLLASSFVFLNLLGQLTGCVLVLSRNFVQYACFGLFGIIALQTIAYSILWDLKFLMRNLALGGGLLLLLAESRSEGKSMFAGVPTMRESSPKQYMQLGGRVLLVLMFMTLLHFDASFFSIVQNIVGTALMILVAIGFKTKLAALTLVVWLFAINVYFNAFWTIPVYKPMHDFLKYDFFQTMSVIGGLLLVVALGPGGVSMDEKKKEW

Tests used:
[1] = biological target: 3xHA-tagged ShhN (ShhN^1-198-HA) (not stated (human or mouse cDNA cloned)) (UniProt Q62226); assay: co-IP; lysates of co-transfected HEK293T cells incubated with beads conjugated with HA antibodies, immunoblot; no cross-linker mentioned; for the RUSH construct cells with or without biotin and 20 °C incubation
[2] = biological target: SBP-EGFP-ShhN^25-198-HA (mouse) (UniProt Q62226); assay: as above
[3] = biological target: HA-tagged CW motif-depleted ShhN (ShhN^Δ33-39-HA) (not stated (human or mouse cDNA cloned)) (UniProt Q62226); assay: co-IP; co-transfected HEK293T cells treated with 2 mM DSP cross-linker, lysates on beads conjugated with HA antibodies, immunoblot with anti-HA or anti-Myc; for the RUSH construct cells at 20 °C for 2 h with or without biotin, negative control or XYLT2 siRNA
[4] = biological target: 3xHA-tagged ShhN (ShhN^1-198-HA) (not stated (human or mouse cDNA cloned)) (UniProt Q62226); assay: as above
[5] = biological target: SBP-EGFP-ShhN^25-198-HA (mouse) (UniProt Q62226); assay: as above

Measured: binding

Myc-tagged SURF4 (SURF4-Myc) (from UniProt O15260 1-269) (receptor)
binds: all assays above

SURF4^ED-AA-Myc (from UniProt O15260 1-269) (receptor)
binds: [4]
